# Values of other authors as cited in patent US20060052448A1, “Use of methyl pyruvate or methyl pyruvic acid for the treatment of diseases of the nervous system and for protecting a human central nervous system against neuronal degeneration caused by defective intracellular energy production” (priority 2004, published 2006).
# Chains of the proteins cited; added tags and fusions are not shown. Lines headed by an entry give the natural chain unless they say otherwise; changes in a name come on top.
# UniProt Q09428: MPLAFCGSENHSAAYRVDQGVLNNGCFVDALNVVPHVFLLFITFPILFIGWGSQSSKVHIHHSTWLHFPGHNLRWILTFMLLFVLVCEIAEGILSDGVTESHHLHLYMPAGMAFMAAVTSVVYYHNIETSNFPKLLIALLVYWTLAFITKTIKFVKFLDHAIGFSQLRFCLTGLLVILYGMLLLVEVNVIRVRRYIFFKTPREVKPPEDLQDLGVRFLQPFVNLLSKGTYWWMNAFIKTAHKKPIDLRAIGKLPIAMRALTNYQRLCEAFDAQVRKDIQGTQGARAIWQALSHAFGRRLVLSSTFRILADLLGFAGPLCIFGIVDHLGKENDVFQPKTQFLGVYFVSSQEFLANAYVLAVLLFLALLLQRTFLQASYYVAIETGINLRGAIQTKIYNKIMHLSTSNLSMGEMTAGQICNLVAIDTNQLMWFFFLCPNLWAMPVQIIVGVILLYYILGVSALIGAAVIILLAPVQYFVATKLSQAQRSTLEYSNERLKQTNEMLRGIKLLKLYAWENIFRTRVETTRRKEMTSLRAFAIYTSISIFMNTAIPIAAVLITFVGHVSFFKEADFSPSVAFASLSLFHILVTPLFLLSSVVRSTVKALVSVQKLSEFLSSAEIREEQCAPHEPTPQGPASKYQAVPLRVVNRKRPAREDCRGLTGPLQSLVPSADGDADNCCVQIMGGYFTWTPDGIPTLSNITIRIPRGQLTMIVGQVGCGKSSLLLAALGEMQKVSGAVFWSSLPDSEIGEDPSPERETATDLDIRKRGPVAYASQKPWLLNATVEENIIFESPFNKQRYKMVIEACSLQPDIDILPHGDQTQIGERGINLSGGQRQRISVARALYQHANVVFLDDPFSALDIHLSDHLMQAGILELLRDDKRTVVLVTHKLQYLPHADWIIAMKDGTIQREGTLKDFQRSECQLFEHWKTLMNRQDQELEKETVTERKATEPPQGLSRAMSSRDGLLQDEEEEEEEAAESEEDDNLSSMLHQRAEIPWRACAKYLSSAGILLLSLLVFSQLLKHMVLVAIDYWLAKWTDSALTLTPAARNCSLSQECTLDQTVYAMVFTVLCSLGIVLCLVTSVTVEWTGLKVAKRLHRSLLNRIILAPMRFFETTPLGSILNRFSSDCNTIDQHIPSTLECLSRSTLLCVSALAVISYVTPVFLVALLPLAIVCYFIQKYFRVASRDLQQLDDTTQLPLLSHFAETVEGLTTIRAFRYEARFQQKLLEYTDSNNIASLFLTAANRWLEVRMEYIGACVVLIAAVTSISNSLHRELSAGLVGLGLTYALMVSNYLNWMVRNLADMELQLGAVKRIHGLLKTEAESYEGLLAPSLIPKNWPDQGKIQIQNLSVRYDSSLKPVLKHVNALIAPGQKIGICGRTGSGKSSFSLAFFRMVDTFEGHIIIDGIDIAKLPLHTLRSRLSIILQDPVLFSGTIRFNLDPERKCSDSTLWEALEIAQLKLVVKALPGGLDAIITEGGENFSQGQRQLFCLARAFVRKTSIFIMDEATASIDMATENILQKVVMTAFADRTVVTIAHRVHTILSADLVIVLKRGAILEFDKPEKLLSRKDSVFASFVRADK
# UniProt Q14654: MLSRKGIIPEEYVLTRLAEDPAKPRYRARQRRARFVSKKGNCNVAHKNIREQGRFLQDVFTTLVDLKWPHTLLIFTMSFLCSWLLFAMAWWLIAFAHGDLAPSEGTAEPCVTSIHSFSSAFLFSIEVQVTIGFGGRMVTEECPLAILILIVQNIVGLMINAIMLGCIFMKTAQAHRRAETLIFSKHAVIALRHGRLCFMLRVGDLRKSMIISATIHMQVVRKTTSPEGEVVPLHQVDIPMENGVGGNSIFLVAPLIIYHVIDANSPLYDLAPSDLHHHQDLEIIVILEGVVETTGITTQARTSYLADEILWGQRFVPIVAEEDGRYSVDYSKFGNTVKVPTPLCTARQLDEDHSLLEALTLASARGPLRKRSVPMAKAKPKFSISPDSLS
# For at least one compound, name, drawing or mass did not settle the structure.
# Assays:
# pancreatic beta-cells [1] = test system: pancreatic beta-cells
# pancreatic beta-cells [2] = test system: pancreatic beta-cells; remark: listed apart in the source
# pancreatic beta-cells [3] = details: 5-20 mM
# whole islets = details: 5 mM
# [4] = test system: isolated pancreatic islets
# [5] = test system: porcine carotid artery strips; details: 10 mM in PSS
# K(ATP) channels = target: T1, K(ATP) channels (Homo sapiens, UniProt Q09428+Q14654)
# T1 construct: endogenous in cells
compound,measurement,setting,value
CC(=O)C(=O)O [pyruvate],NADH and NADPH response (NAD(P)H imaging and LipDH autofluorescence),pancreatic beta-cells [1],raises cellular NADPH without raising NADH
same,initiation of insulin release,pancreatic beta-cells [2]; 5-20 mM,failed to initiate insulin release
same,stimulation of insulin secretion,pancreatic beta-cells [2]; pyruvate metabolized in islets to same extent as glucose,no stimulation of insulin secretion
same,depolarization of the beta-cell membrane potential,pancreatic beta-cells [3],failed to initiate insulin release (5-20 mM) or to depolarize the membrane potential
same,effect on ATP/ADP ratio in whole islets,whole islets,no effect
same,"concentration of ATP, ADP and AMP in the islet cells",[4]; 30 mM,does not affect
same,"left shift of insulin release vs glucose curve, equivalent glucose concentration",[4]; 30 mM pyruvate,2 mM
same,concentration of reduced nicotinamide nucleotides,"[4]; 30 mM, in the presence but not in the absence of glucose",increases
same,increase in O2 consumption,[5],approximately 45%
same,block of KATP,K(ATP) channels,did not block KATP
